PubChem BioAssay AID1347076 (National Center for Advancing Translational Sciences (NCATS), 2019)
The campaign covered roughly 400,000 compounds. About 13,000 (3.2%) were called active. Inconclusive means that the source gave no clear call. Such entries were picked first, then a sample of the others. Calls follow the shape of the dose curve; as a rule, active = well fitted cell-killing curve with a large enough effect; inconclusive = small, poorly fitted or top-dose-only effect, or effect the other way; inactive = flat fitted curve, though single readings scatter. Where the call is inconclusive, the potency comes from a doubtful curve fit.

Assay: qHTS assay for MDR1-selective chemotherapeutics: Primary screen using the drug-selected MDR subline cells KB-V1; also: nearly all actives have a fitted effect of over 60% in size
Conditions: KB-V1 MDR cells viability, CellTiter-Glo, 72 h; activity change, negative = cytotoxicity: at 46.1 µM (top of the series)
Procedure, shortened: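 Potencies derive from concentration-effect curves fitted to normalized luminescence (CellTiter-Glo) of KB-V1 cells treated for 72 h at 37 degrees C in phenol-red-free DMEM containing 10% FBS.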
% is scaled to controls: 0 for no effect and ±100 for the full control effect; potency is read from the fitted curve at half-maximal effect.

SMILES | Potency | activity change, negative = cytotoxicity
CC(C)=C[C@H]1C[C@H](C)[C@H]2CC[C@H](C)c3c(O[C@@H]4OC[C@@H](O)[C@H](O)C4O)c(O)c(C)c1c32 (some centres undefined) | inactive | 
CCCC(OC(=O)CC1Sc2ccccc2NC1=O)C(=O)NCc1ccco1 (centres undefined) | inconclusive: 20.6 µM [cytotoxic, partial curve, poor fit] | 
O=C(NNC(=O)c1ccco1)Nc1ccccc1 | inconclusive: 29.1 µM [cytotoxic, single point] | 
Cn1nc(C(=O)NCCOc2ccccc2)c2ccccc2c1=O | inconclusive: 9.2 µM [cytotoxic, partial curve] | 
Cc1ccc(S(=O)(=O)NNC(=O)C(O)(c2ccccc2C)c2ccccc2C)cc1 | inconclusive: 7.31 µM [cytotoxic, partial curve] | 
COc1ccc(NC(=O)c2ccc3c(SCC(=O)O)c4c(nc3c2)CCCC4)cc1OC | inactive | 
COc1cccc(CNc2nc3cc(-c4cccc(Cl)c4)sc3c(=O)n2C)c1 | inactive | 
Cc1sc2ncn(CC(=O)Nc3ccc(F)cc3Cl)c(=O)c2c1S(=O)(=O)N1CCN(c2ncccn2)CC1 | inconclusive: 29.1 µM [rising, single point] | 
O=C(NC1CCCCC1)C1CCCN1C(=O)NCc1ccccc1 (centres undefined) | inconclusive: 23.1 µM [cytotoxic, single point] | 
CCC(=O)N(CC(=O)Nc1sc(C)c(C)c1C(N)=O)Cc1ccc(F)cc1 | inconclusive: 7.31 µM [cytotoxic, partial curve] | 
CCCC(=O)Nc1ccc(NC(=O)CCc2ccccc2)cn1 | inactive | 
Cc1nc(NCc2ccccc2)c(C(N)=O)c2c1COC(C)(C)C2 | inconclusive: 23.1 µM [cytotoxic, partial curve, poor fit] | 
Cc1ccc(CN2CCN(CCCn3cnc4c(OCc5ccccc5)ncnc43)CC2)cc1 | inactive | 
COc1ccccc1N1CCN(C(=O)c2c(-c3c(Cl)cccc3Cl)noc2C)CC1 | inactive | 
COc1cc(/C=C2\SC(=O)N(CCNC(=O)c3c(C)noc3C)C2=O)cc(OC)c1OC | inactive | 
COc1ccc(-c2noc(CN(C(=O)c3cccs3)C(C)C)n2)cc1 | inconclusive: 11.6 µM [cytotoxic, partial curve, poor fit] | 
COc1cc2c(cc1OC)[C@H](C)N(C(=S)Nc1ccc(F)cc1)CC2 | inconclusive: 18.4 µM [cytotoxic, single point] | 
CCOC(=O)/C(=N\Nc1ncnc2ccccc12)c1ccc(C)cc1 | inconclusive: 29.1 µM [rising, single point] | 
Cc1[nH]nc(-c2ccc(OCc3cnn(-c4ccccc4)c3)cc2O)c1Oc1ccccc1F | inconclusive: 25.9 µM [cytotoxic, single point] | 
CCOC(=O)CN(C(=O)CSc1nnc(CNc2ccc(F)cc2)o1)c1ccccc1 | inactive | 
COc1ccccc1C(=O)N=Nc1c(O)[nH]c2ccc([N+](=O)[O-])cc12 | inconclusive: 23.1 µM [rising, partial curve, poor fit] | 
COc1ccccc1-c1nnc(C2CCN(C(=O)c3cccc(Cl)c3)CC2)o1 | inconclusive: 0.164 µM [cytotoxic, partial curve, poor fit] | 
CCOC(=O)c1ccccc1NC(=O)Cn1c(=O)n(CCC(=O)N2CCc3ccccc3C2)c(=O)c2ccccc21 | inactive | 

SMILES | Potency | activity change, negative = cytotoxicity
Cc1cc(C(=O)CN2CCCCC2)c(C)n1-c1ccc(F)cc1 | inconclusive: 5.8 µM [cytotoxic, partial curve, poor fit] | 
O=C(c1ccc(F)cc1)N(Cc1ccco1)C1CCS(=O)(=O)C1 (centres undefined) | inconclusive: 8.2 µM [rising, partial curve, poor fit] | 
Clc1ccc(C[n+]2cc(-c3ccccc3)n3c2CCCCC3)c(Cl)c1 | inconclusive: 29.1 µM [rising, single point] | 
O=C(COc1ccc(Cl)cc1Br)NC1CC1 | inconclusive: 18.4 µM [cytotoxic, single point] | 
COc1cccc(NC(=O)c2ccc3c(c2)C(=O)N(CC2CCCO2)C3=O)c1 (centres undefined) | inconclusive: 18.4 µM [rising, single point] | 
Cc1nnc(NC(=O)CSc2nnc(CC(=O)Nc3ccccc3C)n2C)s1 | inconclusive: 0.259 µM [cytotoxic, full curve, poor fit] | 
Cc1cc(C)cc(NC(=O)Nc2ccc(Cl)cn2)c1 | inconclusive: 20.6 µM [rising, single point] | 
Nc1nc2ccccc2cc1-c1cccs1 | inactive | 
COc1cc(/C=N/Nc2nc(C)nc3c2cnn3-c2ccccc2)ccc1O | active: 8.2 µM | 
CCOC(=O)c1c(C)[nH]c(C(=O)OCC(=O)c2ccccc2)c1C | inconclusive: 9.2 µM [cytotoxic, partial curve, poor fit] | 
CC1CCCCC1Nc1ncnc2sccc12 (centres undefined) | inactive | 
CN(Cc1ccc(Cl)c(Cl)c1)C(=O)c1[nH]c(C(F)(F)F)nc1-c1ccccc1 | inconclusive: 29.1 µM [cytotoxic, single point] | 
CC(=O)N1c2ccc(S(=O)(=O)N3CCCCC3)cc2CC1C(=O)Nc1cccc(C)c1 (centres undefined) | inactive | 
COC(=O)c1sc(N2C(=O)c3oc4ccc(F)cc4c(=O)c3C2c2ccc(C)cc2)nc1C (centres undefined) | inconclusive: 29.1 µM [rising, single point] | 
O=C(CSc1nnc(-c2ccncc2)o1)NC1C2CC3CC(C2)CC1C3 (centres undefined) |  | inconclusive: -30.6%
C[C@@H]1[C@H](c2ccccc2)OCCS(=O)(=O)N1Cc1ccccc1Br | inconclusive: 13 µM [cytotoxic, partial curve] | 
CCCN1C2=NCCN2c2cc(C)c(C)cc21 | inconclusive: 20.6 µM [cytotoxic, partial curve, poor fit] | 
COC(=O)[C@]1(C)N[C@H](c2ccc(SC3CCCCC3)c(OC)c2)[C@@H]2C(=O)N(C)C(=O)[C@@H]21 | inconclusive: 32.6 µM [rising, partial curve, poor fit] | 
COc1ccc(/C=N/NS(=O)(=O)c2ccc(F)cc2)cc1CN1CCSCC1 | inconclusive: 20.6 µM [cytotoxic, single point] | 
O=C(Cc1cccs1)Nc1nc(-c2ccc(F)cc2F)cs1 | inconclusive: 20.6 µM [cytotoxic, single point] | 
COc1ccc([N+](=O)[O-])cc1NC(=O)C(C)N1CCCC1 (centres undefined) | inactive | 
Cc1ccc(N2CC(C(=O)NCCS(=O)(=O)N3CCN(c4ccccc4)CC3)CC2=O)cc1C (centres undefined) |  | inconclusive: -2.07%
O=C(CCSc1ccccc1)Nc1nnc(-c2cccs2)o1 | inactive | 

SMILES | Potency | activity change, negative = cytotoxicity
Cc1ccc(CNn2cnnc2SCc2ccc(F)cc2)cc1 | active: 14.6 µM | 
CCOC(=O)C1=CC[C@@H](c2ccncc2)N(S(=O)(=O)c2ccc(C)cc2)C1 | inconclusive: 0.731 µM [cytotoxic, full curve] | 
O=c1[nH]cc(C(F)(F)F)cc1NS(=O)(=O)c1ccccc1[N+](=O)[O-] | inactive | 
Cc1ccc(C)c(-n2nnc3ccccc3c2=O)c1 | inconclusive: 18.4 µM [cytotoxic, partial curve, poor fit] | 
O=C(NNC(=O)c1ccccc1[N+](=O)[O-])c1csc(N2CCOCC2)n1 | inactive | 
O=C(CCc1ccccc1)N(Cc1cccnc1)c1nc2c(F)cc(F)cc2s1 | inactive | 
CCOc1ccc(OCc2ccc(C(=O)Nc3cc(OC)c(OC)c(OC)c3)o2)cc1 | inconclusive: 5.8 µM [cytotoxic, full curve] | 
Cc1nc2ncnn2c(N2CCCC(C(=O)Nc3ccc4c(c3)CCC4)C2)c1C (centres undefined) | inconclusive: 23.1 µM [cytotoxic, single point] | 
COc1ccc(-n2nnnc2-c2cccc(OC)c2)cc1 | active: 1.16 µM | 
O=C(Cn1cnc2c(cnn2-c2ccccc2)c1=O)NCc1ccccc1 | active: 5.17 µM | 
CCCCc1c(-c2ccccc2OC)ncn1C1CCCC1 | active: 13 µM | 
CCn1c(SCC(=O)c2ccc3c(c2)Cc2ccccc2-3)nnc1-c1ccc(N)cc1 | inconclusive: 5.17 µM [rising, full curve, poor fit] | 
CCCn1c(=N)n(CC(O)COc2cccc(C)c2)c2ccccc21 (centres undefined) | active: 14.6 µM | 
CCOC(=O)c1cc(NC(=O)C2CCCO2)cc(C(=O)OCC)c1 (centres undefined) | active: 13 µM | 
CC(C)(C)c1cc(CCC(=O)NNC(=O)c2ccncc2)cc(C(C)(C)C)c1O | inconclusive: 0.0046 µM [cytotoxic, full curve, poor fit] | 
COC(=O)C1C/C(=N/NS(=O)(=O)c2ccc(C)cc2)CS1 (centres undefined) | inconclusive: 29.1 µM [rising, single point] | 
CCOc1ccccc1C(=O)Nc1cccc2ccc(C)nc12 | inconclusive: 1.3 µM [rising, full curve] | 
Cc1ccc(/C=N/NC(=O)c2n[nH]c3c2CCCC3)cc1 | active: 1.16 µM | 
CCc1ccccc1N1CCN(S(=O)(=O)c2ccc(F)c(C)c2)CC1 | inconclusive: 29.1 µM [cytotoxic, single point] | 
COc1ccc(N2CCN(C(=O)COc3ccc(S(=O)(=O)N4CCOCC4)cc3C)CC2)cc1 | inconclusive: 13 µM [cytotoxic, partial curve] | 
CCCN(C(=O)C(=O)Nc1ccc2nc3n(c(=O)c2c1)CCCCC3)c1ccc(OCC)cc1 | inconclusive: 8.2 µM [cytotoxic, partial curve] | 
CCN(CC)C1Oc2cc3c(cc2C(c2cc(OC)c(OC)c(OC)c2)C1C)OCO3 (centres undefined) | inconclusive: 0.0092 µM [cytotoxic, full curve, poor fit] | 
O=C(N/N=C/C=C\c1ccccc1[N+](=O)[O-])c1cc(-c2ccccc2)nc2ccccc12 | inactive | 

Shown as labelled records: entries from further up.
O=c1[nH]cc(C(F)(F)F)cc1NS(=O)(=O)c1ccccc1[N+](=O)[O-]
  Potency: inactive
Cc1ccc(C)c(-n2nnc3ccccc3c2=O)c1
  Potency: inconclusive: 18.4 µM [cytotoxic, partial curve, poor fit]
